In the assay the target is recombinant Acrp30 (His-tagged, expressed from pTRC His B in E. coli) (mouse) (UniProt Q60994). Put plainly: SDS-PAGE of purified recombinant protein (self-association).

These are yes or no findings as the source states them, for the method shown. Some binding calls cover weakened binding; strength is not graded here. Where a sequence is shown, tags or fusion partners need not be part of it.

B1: recombinant Acrp30 (His-tagged, expressed from pTRC His B in E. coli) (protein, mouse, UniProt Q60994 15-247, looked up, not shown: small tags and cut ends)
chain: SHAEDDVTTTEELAPALVPPPKGTCAGWMAGIPGHPGHNGTPGRDGRDGTPGEKGEKGDAGLLGPKGETGDVGMTGAEGPRGFPGTPGRKGEPGEAAYVYRSAFSVGLETRVTVPNVPIRFTKIFYNQQNHYDGSTGKFYCNIPGLYYFSYHITVYMKDVKVSLFKKDKAVLFTYDQYQEKNVDQASGSVLLHLEVGDQVWLQVYGDGDHNGLYADNVNDSTFTGFLLYHDTN
For the molecule B1, the binding entry was “binds”.
